These are yes or no findings as the source states them, for the method shown. Binding seen in cells or lysates may run through a third protein. A yes stands for co-enrichment or nearness to the bait. Other partners may have been found.
Molecular target: CD36 (mouse (endogenous in RAW264.7)) (UniProt Q08857)
Experiment: affinity purification with mass spectrometry; cellular extracts from RAW264.7 cells immunopurified with anti-CD36 antibody beads, SDS-PAGE, silver staining, bands excised for LC-MS/MS

Chains of the proteins cited; added tags and fusions are not shown.
UniProt Q08857: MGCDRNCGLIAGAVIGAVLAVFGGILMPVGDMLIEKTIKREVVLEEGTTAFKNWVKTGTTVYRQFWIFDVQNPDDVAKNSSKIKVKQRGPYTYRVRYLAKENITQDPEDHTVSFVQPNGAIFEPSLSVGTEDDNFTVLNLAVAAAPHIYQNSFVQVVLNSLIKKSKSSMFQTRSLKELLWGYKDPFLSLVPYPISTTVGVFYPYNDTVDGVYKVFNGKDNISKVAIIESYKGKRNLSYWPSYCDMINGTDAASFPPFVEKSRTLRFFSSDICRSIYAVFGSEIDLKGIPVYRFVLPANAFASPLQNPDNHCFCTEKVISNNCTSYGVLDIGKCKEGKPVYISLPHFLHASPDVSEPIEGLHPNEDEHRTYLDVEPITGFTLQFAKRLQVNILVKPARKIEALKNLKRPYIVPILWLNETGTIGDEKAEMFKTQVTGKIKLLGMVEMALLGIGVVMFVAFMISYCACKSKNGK
UniProt Q9JMA1: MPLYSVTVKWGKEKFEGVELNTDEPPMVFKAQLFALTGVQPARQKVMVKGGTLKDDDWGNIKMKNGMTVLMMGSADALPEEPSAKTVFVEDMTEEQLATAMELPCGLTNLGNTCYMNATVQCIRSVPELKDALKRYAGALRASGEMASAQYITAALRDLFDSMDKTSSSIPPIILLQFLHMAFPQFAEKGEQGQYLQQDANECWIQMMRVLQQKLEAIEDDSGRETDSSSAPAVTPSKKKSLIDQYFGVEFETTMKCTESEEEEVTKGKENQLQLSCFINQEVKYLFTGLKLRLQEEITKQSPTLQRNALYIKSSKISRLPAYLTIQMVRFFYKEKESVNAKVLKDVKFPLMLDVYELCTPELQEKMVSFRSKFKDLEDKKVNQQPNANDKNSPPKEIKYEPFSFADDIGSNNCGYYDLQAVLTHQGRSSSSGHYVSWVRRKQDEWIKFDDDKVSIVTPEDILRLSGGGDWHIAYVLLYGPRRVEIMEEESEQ

- binding: binds
Substance: USP14 (from UniProt Q9JMA1 1-493) (enzyme)

Reference: PMC7131911
